In one test the target is T1, V5-FBP1 (human) (UniProt P09467).
T1 sequence: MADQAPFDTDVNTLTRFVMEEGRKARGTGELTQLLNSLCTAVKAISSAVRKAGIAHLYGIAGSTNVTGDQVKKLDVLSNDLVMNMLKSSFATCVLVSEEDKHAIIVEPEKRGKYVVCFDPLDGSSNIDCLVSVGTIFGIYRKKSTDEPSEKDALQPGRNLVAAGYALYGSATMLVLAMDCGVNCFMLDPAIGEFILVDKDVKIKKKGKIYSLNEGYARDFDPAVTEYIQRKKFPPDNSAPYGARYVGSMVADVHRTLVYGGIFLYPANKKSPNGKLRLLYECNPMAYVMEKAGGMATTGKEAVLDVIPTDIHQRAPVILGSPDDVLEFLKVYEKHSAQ
The experiment in a line: co-IP.

Sequences of proteins named here, by UniProt entry; tags and fusion partners are left off. A change or cut given only in a name is not applied to a line headed by its entry.
UniProt P67775: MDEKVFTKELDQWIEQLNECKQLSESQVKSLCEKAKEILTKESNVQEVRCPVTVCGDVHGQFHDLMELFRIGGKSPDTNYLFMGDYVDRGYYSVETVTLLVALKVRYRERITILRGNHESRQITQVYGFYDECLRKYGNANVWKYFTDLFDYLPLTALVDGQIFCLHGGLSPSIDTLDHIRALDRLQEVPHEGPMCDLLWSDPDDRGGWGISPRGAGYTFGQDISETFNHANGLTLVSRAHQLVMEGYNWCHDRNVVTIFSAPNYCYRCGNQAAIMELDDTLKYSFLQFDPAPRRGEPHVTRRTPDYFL
UniProt P63330: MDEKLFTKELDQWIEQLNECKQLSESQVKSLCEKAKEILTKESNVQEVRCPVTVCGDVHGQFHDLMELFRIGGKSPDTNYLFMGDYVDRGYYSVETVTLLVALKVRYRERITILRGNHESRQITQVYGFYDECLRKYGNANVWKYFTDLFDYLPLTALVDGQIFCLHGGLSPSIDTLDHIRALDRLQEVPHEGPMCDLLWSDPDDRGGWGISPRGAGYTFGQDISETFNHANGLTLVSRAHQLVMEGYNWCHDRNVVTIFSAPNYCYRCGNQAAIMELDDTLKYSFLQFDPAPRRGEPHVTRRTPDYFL

In the next test the target is V5-FBP1 ΔE1 (human) (UniProt P09467). As to the kind of experiment: co-IP.
For the next test, the target named is V5-FBP1 ΔE7 (human) (UniProt P09467). As to the kind of experiment: co-IP.
The target in another test is T2, V5-FBP1^E98A (human) (UniProt P09467).
T2 sequence: T1 sequence with E98A
The experiment in a line: co-IP.

The next test addresses T3, V5-FBP1^L329P (human) (UniProt P09467).
T3 sequence: T1 sequence with L329P
As to the kind of experiment: co-IP.

Test [1] concerns the target T4, FBP1 (mouse liver) (mouse (endogenous in liver)) (UniProt Q9QXD6).
T4 sequence: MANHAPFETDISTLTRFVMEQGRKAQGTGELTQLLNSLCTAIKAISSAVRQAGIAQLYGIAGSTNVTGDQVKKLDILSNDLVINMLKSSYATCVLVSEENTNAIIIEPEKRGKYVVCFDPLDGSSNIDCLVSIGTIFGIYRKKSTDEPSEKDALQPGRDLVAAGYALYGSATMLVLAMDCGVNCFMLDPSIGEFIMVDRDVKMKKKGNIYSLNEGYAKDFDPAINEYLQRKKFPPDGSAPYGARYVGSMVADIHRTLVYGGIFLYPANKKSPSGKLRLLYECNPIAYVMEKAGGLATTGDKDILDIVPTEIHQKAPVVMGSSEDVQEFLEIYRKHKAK
As to the kind of experiment: proximity ligation.

Test [2] concerns the target T4, FBP1 (mouse liver) (mouse (endogenous in liver)). The experiment in a line: SEC. (In general: SEC sorts molecules by how far they enter the pores of the column.)
Test [3] has the same target. As to the kind of experiment: co-IP.

For two substances, binding results are on record in publication doi:10.1101/2023.03.05.531181.

Substitutions are numbered along the chain they refer to. No constants are given. Whether binding was seen depends on the method and setting. For some assays here: Binding calls can cover weak binding; strength is not graded here. For some assays here: Binding seen in cells or lysates may run through a third protein. For some assays here: Tags and fused reporters may be left off the sequences shown.

For the substance “PP2A-C (Huh7 cells) (from UniProt P67775) (enzyme)”, the binding entry in the test with V5-FBP1 (human) is given as “binds”; with V5-FBP1 ΔE1 (human) it was “binds”; in the test with V5-FBP1 ΔE7 (human), “no binding”; with V5-FBP1^E98A (human), “binds”; with V5-FBP1^L329P (human), “no binding”.
Take “PP2A-C (mouse liver) (from UniProt P63330) (enzyme)”: the binding entry in test [1], in test [2] and in test [3] was “binds” each time.
